Results from PubChem BioAssay AID540276 (National Center for Advancing Translational Sciences (NCATS), 2011).
Where “and” joins values, the source holds several entries; their conditions need not be identical. Equal entries are not always repeated. The campaign covered roughly 300,000 compounds. About 5,400 (1.8%) were called active. This list was built around the results that the source calls inconclusive (neither active nor inactive); the mix of calls is not that of the screen. Calls follow the shape of the full dose curve; tested in HEK293 cells. Potencies beside an inconclusive call are fits to weak or partial responses and may not hold up.

Test: qHTS for inhibitors of binding or entry into cells for Marburg Virus
Conditions: Marburg virus pseudotyped entry inhibition, cell reporter; activity change, negative = inhibition: at 37.8 µM (top of the series) unless noted
% is scaled to controls: 0 for no effect and ±100 for the full control effect; potency is read from the fitted curve at half-maximal effect.

Structure (SMILES)	activity change, negative = inhibition	Potency
CCc1nn2c(-c3ccccc3OC)ccnc2c1-c1ccccc1	inactive: -21.6% [at 46.1 µM]	–
CC(C)Oc1ccc(C(=O)NC2=NCCS2)cc1	–	active: 8.91 µM
Cc1[nH]c2ccccc2c1CC#N	–	inconclusive: 2.82 µM [inhibitor, single point]
CCc1cccc(C)c1NC(=O)CCS(=O)(=O)c1cc(Br)cc2c1N(C(=O)C1CC1)CC2	–	inconclusive: 35.5 µM [inhibitor, single point]
Cc1sc2ncnc(N3CCCCC3C)c2c1C (centres undefined)	–	inconclusive: 29.1 µM [inhibitor, single point]
COC(=O)C1=C[C@@H]([C@@H](C)[C@H](OC)c2ccccc2Br)[C@@H]2OCCC[C@H]12	–	inconclusive: 0.188 µM [inhibitor, full curve, poor fit]
Cc1cccc(OCC(=O)NCC(=O)N/N=C/c2cc(Br)cc(Br)c2O)c1	–	inconclusive: 11.2 µM [inhibitor, partial curve, poor fit]
O=C(Cc1cccs1)N(CC1CCCO1)C1(C(=O)NC2CCCCC2)CCCCC1 (centres undefined)	–	inconclusive: 14.1 µM [inhibitor, partial curve, poor fit]
COc1cc(/C=N/NC(=O)c2cccc([N+](=O)[O-])c2)ccc1OC(=O)c1ccco1	inactive: 1.99% [at 46.1 µM]	–
COc1cc(NC(=O)CC2C(=O)OCCN2Cc2ccccc2)cc(OC)c1 (centres undefined)	inactive: 1.65% [at 46.1 µM]	–
NS(=O)(=O)c1ccc(SCc2ccccc2)nc1	–	inconclusive: 35.5 µM [inhibitor, single point]
O=C(NCc1ccccc1)C12CC3CC(CC(Cl)(C3)C1)C2	inactive: 8.42%	–
Cn1c(C2=C(O)CN(Cc3ccccc3)C2=N)[n+](C)c2ccccc21	–	inconclusive: 35.5 µM [activator, single point]
O=C(COc1ccc(Cl)cc1Cl)Nc1ccc(-c2ccc(N3CCOCC3)nn2)cc1	inactive: 23.1% [at 46.1 µM]	–
C[C@H]1[C@@H](C(=O)N2CCCC2)CC(=NOCc2ccccc2)C(=NOCc2ccccc2)C[C@H]1c1ccccc1	inactive: -29.4% [at 14.2 µM]	–
CCn1cc(C(c2ccccc2)C(C(C)=O)[N+](=O)[O-])c2ccccc21 (centres undefined)	–	inconclusive: 25.1 µM [inhibitor, single point]
N/C(=N\OC(=O)c1ccc(F)cc1)c1ccc(Br)cc1	–	inconclusive: 3.55 µM [activator, partial curve, poor fit]
COc1ccc(C)cc1NC(=O)CSc1nnc(COc2ccc(Cl)cc2)n1Cc1ccco1	–	inconclusive: 0.73 µM [inhibitor, full curve, poor fit]
CCCCC[C@H](O)/C=C/[C@H]1CCC(=O)[C@@H]1CCCCCCC(=O)N1CCCCC1CO (some centres undefined)	–	inconclusive: 11.2 µM [inhibitor, partial curve, poor fit]
CCC(CC)c1nn2c(=O)cc(COc3ccc(NC(=O)c4ccccc4C)cc3)nc2s1	–	inconclusive: 3.16 µM [inhibitor, partial curve, poor fit]
COc1ccc(NC(=O)/C(C#N)=C\c2ccc(N3CCOCC3)o2)cc1	–	inconclusive: 12.6 µM [inhibitor, single point]
O=c1c(Cc2c(F)cccc2Cl)c(O)ccn1CCCN1CCOCC1	–	inconclusive: 23.1 µM [activator, single point]
O=C(NC(=S)Nc1ccc2c(c1)OCCO2)c1ccccc1	–	inconclusive: 18.3 µM [inhibitor, single point]

Structure (SMILES)	activity change, negative = inhibition	Potency
COc1ccc(C2(CNC(=O)C(=O)Nc3ccccc3C)CCCC2)cc1OC	inactive: -12.2% [at 46.1 µM]	–
Cc1cc2cc(CN(CC3CCCO3)C(=S)Nc3ccccc3)c(=O)[nH]c2cc1C (centres undefined)	–	inconclusive: 6.51 µM [inhibitor, partial curve]
O=c1c(C(c2ccc(Cl)cc2)c2c(O)nc3n(c2=O)CCCS3)c(O)nc2n1CCCS2	inactive: 12.2% [at 46.1 µM]	–
C=CCN(Cc1cc(OC)ccc1OC)S(=O)(=O)N(C)C	–	inconclusive: 11.2 µM [inhibitor, single point]
COc1ccc(Cl)cc1NC(=O)CN(C)C(C)C(=O)NC(=O)NC1CCCCC1 (centres undefined)	–	inconclusive: 14.1 µM [inhibitor, partial curve, poor fit]
COc1ccc(N=C2SC(C(=O)Nc3ccc(OC)cc3)CC(=O)N2CCN2CCOCC2)cc1 (centres undefined)	–	inconclusive: 5.62 µM [activator, single point]
Cc1ccc(S(=O)(=O)NCC(=O)OCC(=O)c2c(N)n(C)c(=O)n(C)c2=O)cc1	–	inconclusive: 7.08 µM [activator, full curve, poor fit]
COc1ccc(OCC(=O)NNC(=S)NC(=O)C2CC2)cc1	inactive: 3.54% [at 46.1 µM]	–
O=C(Nc1nc(-c2ccccc2)cs1)c1cccnc1	inactive: -20.4%	–
C/C(=C\c1ccccc1)CN1CCC(C(=O)N2CCC(C)CC2)CC1	–	inconclusive: 35.5 µM [inhibitor, single point]
CN(C)S(=O)(=O)Oc1ccsc1C(=O)Nc1ccc(Br)cc1	–	inconclusive: 4.47 µM [inhibitor, partial curve, poor fit]
Cc1ccc(S(=O)(=O)/C=C\C#N)cc1	–	inconclusive: 29.1 µM [inhibitor, single point]
CCOCCCNC(=O)/C(C#N)=C/c1ccc(Cl)c([N+](=O)[O-])c1	–	inconclusive: 28.2 µM [inhibitor, single point]
Cc1ccc(NC(=O)/C(=C\c2cccs2)NC(=O)c2ccccc2)cc1	inactive: -43.6%	–
CCC(=O)Nc1ccc(NC(=S)NC(=O)/C=C/c2ccco2)cc1	–	inconclusive: 35.5 µM [inhibitor, single point]
O=C1CSC(c2ccccc2)N1Cc1ccccn1 (centres undefined)	inactive: 0.948%	–
C1=C(c2ccccc2)CCNC1	–	inconclusive: 0.501 µM [activator, full curve, poor fit]
O=S(=O)(/N=C(/Nc1ccc(F)c(F)c1F)c1ccccc1)c1ccccc1	–	inconclusive: 29.1 µM [activator, single point]
O=C(c1cnc(N2CCN(c3ccccn3)CC2)c2ccccc12)N1CCN(c2cccc(Cl)c2)CC1	–	inconclusive: 3.16 µM [inhibitor, full curve, poor fit]
O=C(Cc1ccc(F)cc1)Oc1ccc(C(=S)N2CCCC2)cc1	–	inconclusive: 17.8 µM [activator, single point]
O=C(COC(=O)C1(c2ccc(F)cc2)CCCC1)N1CCN(C(=O)c2ccco2)CC1	inactive: -6.58%	–
COc1cc(S(=O)(=O)N2CCCCC2)ccc1NC(=O)c1ccc(F)cc1	inactive: -6.81%	–
c1ccc2c(c1)-c1cccc3cncc-2c13	inactive: -6.67%	–

Structure (SMILES)	activity change, negative = inhibition	Potency
Cc1cc(C)cc(N=Cc2c(O)c3ccccc3oc2=O)c1	inactive: 4.39%	–
Nc1c(S(=O)(=O)O)cc(Nc2ccc(Nc3nc(Cl)nc(Nc4ccc(S(=O)(=O)O)cc4)n3)c(S(=O)(=O)O)c2)c2c1C(=O)c1ccccc1C2=O	–	active: 4.47 µM and active: 14.1 µM
COc1cccc(CSc2nc3ccncc3[nH]2)c1	–	inconclusive: 3.55 µM [activator, full curve]
CC(=O)c1ccc(N2CCN(C(=O)c3cccc(Oc4ccccc4)c3)CC2)cc1	–	inconclusive: 35.5 µM [inhibitor, single point]
CC(C)(C)OC(=O)N1CCCC(C(=O)CC#N)C1 (centres undefined)	–	inconclusive: 35.5 µM [inhibitor, single point]
CCn1cc(-c2cc(C(=O)O)on2)c(C)n1	–	inconclusive: 2 µM [activator, partial curve, poor fit]
Cc1ccc2nc(-c3ccc(-c4ccccn4)s3)cn2c1	–	inconclusive: 0.316 µM [activator, partial curve, poor fit]
Fc1ccc(OCc2nc(-c3ccncc3)n[nH]2)cc1	–	inconclusive: 35.5 µM [activator, single point]
C[C@H](N)Cc1c[nH]c2ccc(OCc3cccs3)cc12	–	active: 20.6 µM
C/C(Cn1nnc([N+](=O)[O-])n1)=N\NC(=O)c1ccncc1	–	inconclusive: 20 µM [inhibitor, single point]
O=C(NCC1CCCO1)c1ccc(COc2ccc(Br)cc2)cc1 (centres undefined)	–	inconclusive: 0.891 µM [activator, single point]
N#Cc1c(NC(=O)CSc2nnc(-c3ccncc3)n2CC2CCCO2)sc2c1CCCC2 (centres undefined)	inactive: -9.36%	–
COc1ccc(Nc2nn(-c3ccc(OC(F)(F)F)cc3)nc2C(C)=O)cc1	inactive: 13.2% [at 46.1 µM]	–
CCOC(=O)c1cc(-c2ccccc2)sc1NC(=S)Nc1cc(C)ccn1	inactive: -13.5%	–
O=C(c1ccc(Br)cc1)c1sc(N2CCOCC2)nc1-c1ccccc1	–	inconclusive: 35.5 µM [inhibitor, single point]
CCOC(=O)CSc1nc2cc(C(=O)N3CCC(C(N)=O)CC3)ccc2c(=O)n1C1CCCCC1	–	inconclusive: 35.5 µM [inhibitor, partial curve, poor fit]
O=C(CSc1nc(C(F)(F)F)cc(=O)[nH]1)NCC1CCCO1 (centres undefined)	inactive: -1.81%	–
COc1ccccc1C(CCN(Cc1cccs1)C(C)=O)c1ccco1 (centres undefined)	–	inconclusive: 8.91 µM [inhibitor, partial curve, poor fit]
COc1ccc(OC)c(NC(=O)C(C)N2c3cccc4cccc(c34)S2(=O)=O)c1 (centres undefined)	inactive: -1.76%	–
CCOc1ccc(-c2nnc(N(CC)C(=O)C3CCC3)s2)cc1	–	inconclusive: 10 µM [inhibitor, partial curve, poor fit]
Cc1ccccc1NC(=O)COC(=O)c1ccc(S(C)(=O)=O)c([N+](=O)[O-])c1	–	active: 9.2 µM
CC1CCN(c2nc(Cl)nc(Nc3ccc([N+](=O)[O-])cc3)n2)CC1	–	inconclusive: 6.51 µM [inhibitor, single point]
CSc1ncc(C(=O)Nc2ccccc2C)c(C)n1	–	inconclusive: 1.12 µM [inhibitor, full curve, poor fit]
